Laboratory results reported in article PMC6978637 (Saudi Pharmaceutical Journal : SPJ, 2019).

System: NIH-3T3 cells
Assay: WST-1 cytotoxicity assay
Assay type: cell-based
Details: Mus musculus, NIH3T3, 48 h, read-out: NIH-3T3 Cells IC50

CN[C@@H]1C[C@H]2O[C@@](C)([C@@H]1OC)n1c3ccccc3c3c4c(c5c6ccccc6n2c5c31)C(=O)NC4 [Staurosporin, Staurosporine, reference compound]
IC50: 39 ± 2.28 nM
